Measured values published in paper PMC5291280.
No constants are given. Whether binding was seen depends on the method and setting. In cells and extracts the contact can be indirect. Some binding calls cover weakened binding; strength is not graded here. For some assays here: Sequences can lack the tags named with a protein.

Protein sequences, listed by entry. Tags and fused reporters are not part of them.
UniProt P26196: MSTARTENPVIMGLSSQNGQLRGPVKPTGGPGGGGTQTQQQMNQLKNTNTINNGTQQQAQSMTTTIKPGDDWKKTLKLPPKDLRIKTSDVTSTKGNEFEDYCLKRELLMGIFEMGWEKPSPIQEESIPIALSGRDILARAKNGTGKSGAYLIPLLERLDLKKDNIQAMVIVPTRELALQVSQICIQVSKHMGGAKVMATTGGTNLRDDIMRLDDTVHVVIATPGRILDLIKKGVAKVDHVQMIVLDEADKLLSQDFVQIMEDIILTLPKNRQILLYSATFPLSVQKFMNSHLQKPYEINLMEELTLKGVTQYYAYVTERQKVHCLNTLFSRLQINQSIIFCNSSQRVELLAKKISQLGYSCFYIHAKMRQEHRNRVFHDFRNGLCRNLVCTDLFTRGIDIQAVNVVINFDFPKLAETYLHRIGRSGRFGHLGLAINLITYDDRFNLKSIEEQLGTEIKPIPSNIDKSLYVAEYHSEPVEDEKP
UniProt Q8IZH2: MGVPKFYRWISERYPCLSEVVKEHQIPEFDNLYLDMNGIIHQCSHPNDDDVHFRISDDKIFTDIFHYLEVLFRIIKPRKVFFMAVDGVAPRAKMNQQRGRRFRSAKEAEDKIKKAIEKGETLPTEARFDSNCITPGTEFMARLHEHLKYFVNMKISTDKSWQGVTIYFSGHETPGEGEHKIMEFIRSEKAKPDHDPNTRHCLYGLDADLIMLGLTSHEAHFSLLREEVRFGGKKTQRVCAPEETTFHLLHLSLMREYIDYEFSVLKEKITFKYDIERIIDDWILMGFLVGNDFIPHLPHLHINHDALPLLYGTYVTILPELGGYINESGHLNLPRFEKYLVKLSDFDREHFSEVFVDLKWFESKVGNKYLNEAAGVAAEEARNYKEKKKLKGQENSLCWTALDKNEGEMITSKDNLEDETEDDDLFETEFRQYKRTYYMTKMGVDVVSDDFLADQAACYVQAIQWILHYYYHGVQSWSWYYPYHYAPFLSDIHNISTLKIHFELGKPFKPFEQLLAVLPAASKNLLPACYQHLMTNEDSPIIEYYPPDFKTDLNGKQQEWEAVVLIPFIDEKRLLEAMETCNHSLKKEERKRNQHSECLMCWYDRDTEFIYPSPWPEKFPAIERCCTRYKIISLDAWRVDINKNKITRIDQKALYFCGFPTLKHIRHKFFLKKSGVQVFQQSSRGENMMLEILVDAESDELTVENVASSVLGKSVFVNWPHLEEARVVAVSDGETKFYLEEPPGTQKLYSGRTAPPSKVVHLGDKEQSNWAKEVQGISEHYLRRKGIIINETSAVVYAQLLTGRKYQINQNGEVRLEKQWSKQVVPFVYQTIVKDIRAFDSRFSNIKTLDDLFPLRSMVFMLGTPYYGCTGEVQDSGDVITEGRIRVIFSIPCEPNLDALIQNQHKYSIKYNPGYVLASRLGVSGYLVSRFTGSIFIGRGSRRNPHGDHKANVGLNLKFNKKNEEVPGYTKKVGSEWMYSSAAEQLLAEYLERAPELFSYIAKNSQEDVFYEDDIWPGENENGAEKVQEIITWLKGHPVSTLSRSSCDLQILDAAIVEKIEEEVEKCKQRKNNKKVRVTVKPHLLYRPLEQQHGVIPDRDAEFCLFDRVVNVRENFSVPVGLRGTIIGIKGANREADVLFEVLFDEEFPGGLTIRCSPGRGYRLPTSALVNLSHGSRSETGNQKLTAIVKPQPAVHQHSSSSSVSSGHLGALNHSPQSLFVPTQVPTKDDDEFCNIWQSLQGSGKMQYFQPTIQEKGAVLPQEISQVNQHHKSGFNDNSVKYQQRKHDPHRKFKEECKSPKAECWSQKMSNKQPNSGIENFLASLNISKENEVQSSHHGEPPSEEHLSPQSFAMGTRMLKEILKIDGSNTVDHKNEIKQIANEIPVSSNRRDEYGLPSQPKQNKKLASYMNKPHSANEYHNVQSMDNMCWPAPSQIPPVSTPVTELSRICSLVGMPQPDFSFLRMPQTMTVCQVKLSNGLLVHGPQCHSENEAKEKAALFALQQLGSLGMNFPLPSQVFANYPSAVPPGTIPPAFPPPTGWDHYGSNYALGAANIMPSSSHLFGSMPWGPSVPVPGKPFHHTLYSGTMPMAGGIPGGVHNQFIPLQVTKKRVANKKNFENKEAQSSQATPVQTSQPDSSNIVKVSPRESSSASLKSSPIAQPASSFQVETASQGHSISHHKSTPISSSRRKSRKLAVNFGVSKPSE

T1: FLAG-4E-T (4E-Transporter, full length) (human) (UniProt Q9NRA8)
T1 sequence: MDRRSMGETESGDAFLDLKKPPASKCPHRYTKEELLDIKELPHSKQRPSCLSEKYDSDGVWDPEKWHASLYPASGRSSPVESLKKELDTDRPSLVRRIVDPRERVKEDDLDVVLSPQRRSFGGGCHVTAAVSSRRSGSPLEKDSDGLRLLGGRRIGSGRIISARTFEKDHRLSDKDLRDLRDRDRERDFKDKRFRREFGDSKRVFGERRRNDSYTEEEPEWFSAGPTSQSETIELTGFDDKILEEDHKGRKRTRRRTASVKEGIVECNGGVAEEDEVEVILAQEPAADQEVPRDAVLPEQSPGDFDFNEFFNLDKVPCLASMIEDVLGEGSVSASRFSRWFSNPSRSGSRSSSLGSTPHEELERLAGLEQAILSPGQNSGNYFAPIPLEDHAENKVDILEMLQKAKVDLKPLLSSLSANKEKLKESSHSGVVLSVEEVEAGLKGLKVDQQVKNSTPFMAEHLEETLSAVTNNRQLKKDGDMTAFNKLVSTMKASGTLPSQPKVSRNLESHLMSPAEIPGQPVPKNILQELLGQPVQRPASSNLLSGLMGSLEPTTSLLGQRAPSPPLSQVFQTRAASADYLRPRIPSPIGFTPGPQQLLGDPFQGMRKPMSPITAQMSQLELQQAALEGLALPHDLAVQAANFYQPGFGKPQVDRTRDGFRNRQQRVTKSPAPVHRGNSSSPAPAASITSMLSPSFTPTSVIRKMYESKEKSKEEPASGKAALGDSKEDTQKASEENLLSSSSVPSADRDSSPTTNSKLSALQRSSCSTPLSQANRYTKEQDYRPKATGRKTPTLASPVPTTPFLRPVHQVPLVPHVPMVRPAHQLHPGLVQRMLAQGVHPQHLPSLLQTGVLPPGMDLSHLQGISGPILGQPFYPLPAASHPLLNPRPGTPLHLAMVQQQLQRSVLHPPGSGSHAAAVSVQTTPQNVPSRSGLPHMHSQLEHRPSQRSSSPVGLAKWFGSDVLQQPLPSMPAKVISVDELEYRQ

T2: UNR (CSDE1), endogenous (human (endogenous in HEK293T)) (UniProt O75534)
T2 sequence: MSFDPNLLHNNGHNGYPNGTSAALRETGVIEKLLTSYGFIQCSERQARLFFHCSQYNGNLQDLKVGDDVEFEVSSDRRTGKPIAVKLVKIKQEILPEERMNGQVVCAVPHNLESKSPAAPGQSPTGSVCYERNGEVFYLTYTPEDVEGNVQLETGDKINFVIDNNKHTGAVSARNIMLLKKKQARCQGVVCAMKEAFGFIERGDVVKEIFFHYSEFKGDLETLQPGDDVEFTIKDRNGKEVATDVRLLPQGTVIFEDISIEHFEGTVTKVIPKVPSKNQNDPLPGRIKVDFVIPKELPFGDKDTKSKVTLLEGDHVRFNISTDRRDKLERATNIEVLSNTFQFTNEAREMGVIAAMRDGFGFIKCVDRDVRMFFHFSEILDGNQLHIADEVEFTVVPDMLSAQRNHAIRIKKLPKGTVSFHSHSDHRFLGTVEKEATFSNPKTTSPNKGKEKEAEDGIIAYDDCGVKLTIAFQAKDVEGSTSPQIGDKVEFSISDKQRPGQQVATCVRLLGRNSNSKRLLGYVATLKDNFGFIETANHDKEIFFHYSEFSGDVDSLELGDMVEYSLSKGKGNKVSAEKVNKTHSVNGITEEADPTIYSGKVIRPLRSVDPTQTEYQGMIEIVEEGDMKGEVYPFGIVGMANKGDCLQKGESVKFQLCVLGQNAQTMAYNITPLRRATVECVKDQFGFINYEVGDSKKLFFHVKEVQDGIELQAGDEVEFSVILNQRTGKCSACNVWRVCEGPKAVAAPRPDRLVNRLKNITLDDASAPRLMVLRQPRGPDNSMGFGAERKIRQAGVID

T3: FLAG-UNRΔC (UNR1-744) (human) (UniProt O75534)
T3 sequence: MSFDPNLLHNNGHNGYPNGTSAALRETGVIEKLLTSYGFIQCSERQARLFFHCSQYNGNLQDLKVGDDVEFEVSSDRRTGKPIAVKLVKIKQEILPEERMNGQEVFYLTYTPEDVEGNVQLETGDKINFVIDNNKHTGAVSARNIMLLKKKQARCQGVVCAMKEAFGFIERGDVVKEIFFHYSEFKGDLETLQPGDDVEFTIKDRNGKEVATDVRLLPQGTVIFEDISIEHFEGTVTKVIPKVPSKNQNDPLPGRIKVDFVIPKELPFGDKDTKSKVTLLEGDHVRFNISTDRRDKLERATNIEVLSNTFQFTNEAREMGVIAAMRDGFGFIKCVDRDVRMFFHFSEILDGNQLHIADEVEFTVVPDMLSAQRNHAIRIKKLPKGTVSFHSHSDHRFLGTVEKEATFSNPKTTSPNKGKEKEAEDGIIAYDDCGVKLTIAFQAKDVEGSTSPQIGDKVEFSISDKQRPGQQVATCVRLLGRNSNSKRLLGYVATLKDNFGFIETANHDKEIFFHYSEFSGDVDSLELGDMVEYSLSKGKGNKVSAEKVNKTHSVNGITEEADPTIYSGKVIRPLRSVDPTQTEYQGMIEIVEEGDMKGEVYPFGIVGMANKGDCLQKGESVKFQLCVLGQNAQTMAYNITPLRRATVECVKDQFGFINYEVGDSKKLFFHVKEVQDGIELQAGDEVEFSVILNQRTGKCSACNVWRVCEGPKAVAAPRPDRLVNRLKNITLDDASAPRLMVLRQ

T4: FLAG-UNR (human) (UniProt O75534)
T4 sequence: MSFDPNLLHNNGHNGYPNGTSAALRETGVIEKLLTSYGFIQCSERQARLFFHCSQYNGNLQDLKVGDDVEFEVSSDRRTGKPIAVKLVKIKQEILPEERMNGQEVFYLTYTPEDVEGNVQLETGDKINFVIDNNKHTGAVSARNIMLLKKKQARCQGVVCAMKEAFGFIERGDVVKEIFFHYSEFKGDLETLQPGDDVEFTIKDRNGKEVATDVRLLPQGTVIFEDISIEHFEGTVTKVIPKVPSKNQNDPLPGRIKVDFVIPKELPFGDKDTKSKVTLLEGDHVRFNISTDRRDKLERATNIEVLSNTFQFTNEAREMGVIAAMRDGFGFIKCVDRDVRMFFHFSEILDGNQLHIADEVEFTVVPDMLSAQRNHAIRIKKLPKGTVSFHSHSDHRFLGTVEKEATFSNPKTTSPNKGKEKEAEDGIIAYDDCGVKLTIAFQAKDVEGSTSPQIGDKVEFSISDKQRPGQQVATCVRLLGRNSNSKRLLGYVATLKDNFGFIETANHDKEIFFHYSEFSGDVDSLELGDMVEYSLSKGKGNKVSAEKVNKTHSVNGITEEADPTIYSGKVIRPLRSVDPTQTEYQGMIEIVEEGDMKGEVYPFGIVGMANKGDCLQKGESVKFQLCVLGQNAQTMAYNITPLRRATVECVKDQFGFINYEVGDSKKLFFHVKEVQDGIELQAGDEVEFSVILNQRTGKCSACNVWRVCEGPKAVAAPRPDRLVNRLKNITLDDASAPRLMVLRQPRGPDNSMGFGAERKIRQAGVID


Key:
[1] = biological target: T1, FLAG-4E-T (4E-Transporter, full length) (human); assay: co-IP; anti-FLAG M2 beads on lysates of transfected HEK293T cells, eluted with SDS loading buffer, western blot; lysates with or without RNase A (40 μg/ml); in some panels cells also given siRNA against β-globin, DDX6, UNR or unrip, or co-transfected with HA-DDX6
[2] = biological target: T2, UNR (CSDE1), endogenous (human (endogenous in HEK293T)); assay: co-IP; endogenous proteins, immunoprecipitation with 4E-T and UNR antibodies (Supplementary Figure S1); RNA-independent
[3] = biological target: FLAG-DDX6 (human) (UniProt P26196); assay: co-IP; anti-FLAG M2 beads on lysates of transfected HEK293T cells, eluted with SDS loading buffer, western blot; lysates with or without RNase A (40 μg/ml); in some panels cells also given siRNA against β-globin, DDX6, UNR or unrip, or co-transfected with HA-DDX6
[4] = biological target: T3, FLAG-UNRΔC (UNR1-744) (human); assay: as above
[5] = biological target: T4, FLAG-UNR (human); assay: as above

binding [1]	binding [2]	binding [3]	binding [4]	binding [5]	Molecule
no binding	–	–	–	–	XRN1 exonuclease, endogenous (from UniProt Q8IZH2 1-1706)
–	binds	binds	binds	binds	4E-T, endogenous (protein, UniProt Q9NRA8 1-985) MDRRSMGETESGDAFLDLKKPPASKCPHRYTKEELLDIKELPHSKQRPSCLSEKYDSDGVWDPEKWHASLYPASGRSSPVESLKKELDTDRPSLVRRIVDPRERVKEDDLDVVLSPQRRSFGGGCHVTAAVSSRRSGSPLEKDSDGLRLLGGRRIGSGRIISARTFEKDHRLSDKDLRDLRDRDRERDFKDKRFRREFGDSKRVFGERRRNDSYTEEEPEWFSAGPTSQSETIELTGFDDKILEEDHKGRKRTRRRTASVKEGIVECNGGVAEEDEVEVILAQEPAADQEVPRDAVLPEQSPGDFDFNEFFNLDKVPCLASMIEDVLGEGSVSASRFSRWFSNPSRSGSRSSSLGSTPHEELERLAGLEQAILSPGQNSGNYFAPIPLEDHAENKVDILEMLQKAKVDLKPLLSSLSANKEKLKESSHSGVVLSVEEVEAGLKGLKVDQQVKNSTPFMAEHLEETLSAVTNNRQLKKDGDMTAFNKLVSTMKASGTLPSQPKVSRNLESHLMSPAEIPGQPVPKNILQELLGQPVQRPASSNLLSGLMGSLEPTTSLLGQRAPSPPLSQVFQTRAASADYLRPRIPSPIGFTPGPQQLLGDPFQGMRKPMSPITAQMSQLELQQAALEGLALPHDLAVQAANFYQPGFGKPQVDRTRDGFRNRQQRVTKSPAPVHRGNSSSPAPAASITSMLSPSFTPTSVIRKMYESKEKSKEEPASGKAALGDSKEDTQKASEENLLSSSSVPSADRDSSPTTNSKLSALQRSSCSTPLSQANRYTKEQDYRPKATGRKTPTLASPVPTTPFLRPVHQVPLVPHVPMVRPAHQLHPGLVQRMLAQGVHPQHLPSLLQTGVLPPGMDLSHLQGISGPILGQPFYPLPAASHPLLNPRPGTPLHLAMVQQQLQRSVLHPPGSGSHAAAVSVQTTPQNVPSRSGLPHMHSQLEHRPSQRSSSPVGLAKWFGSDVLQQPLPSMPAKVISVDELEYRQ
